Source: publication PMC10933653
No constants are given. Whether binding was seen depends on the method and setting. Binding seen in cells or lysates may run through a third protein. These calls come from enrichment with a bait or labelling near it, and not all partners need be listed.

By UniProt entry, the sequences of proteins in these tests, tags left out. Residues count along the entry.
UniProt P25445, residues 26-335: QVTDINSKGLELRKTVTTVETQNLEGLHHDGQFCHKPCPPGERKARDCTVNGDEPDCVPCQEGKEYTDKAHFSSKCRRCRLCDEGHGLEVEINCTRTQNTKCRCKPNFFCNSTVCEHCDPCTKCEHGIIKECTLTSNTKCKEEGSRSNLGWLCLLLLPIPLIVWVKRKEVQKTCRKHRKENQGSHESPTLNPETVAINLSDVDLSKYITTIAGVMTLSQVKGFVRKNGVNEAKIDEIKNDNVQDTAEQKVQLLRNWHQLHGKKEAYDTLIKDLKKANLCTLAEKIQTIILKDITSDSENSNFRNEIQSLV

Target: T1, PIR (bait of the immunoprecipitation and mass spectrometry screen) (UniProt O00625)
T1 sequence: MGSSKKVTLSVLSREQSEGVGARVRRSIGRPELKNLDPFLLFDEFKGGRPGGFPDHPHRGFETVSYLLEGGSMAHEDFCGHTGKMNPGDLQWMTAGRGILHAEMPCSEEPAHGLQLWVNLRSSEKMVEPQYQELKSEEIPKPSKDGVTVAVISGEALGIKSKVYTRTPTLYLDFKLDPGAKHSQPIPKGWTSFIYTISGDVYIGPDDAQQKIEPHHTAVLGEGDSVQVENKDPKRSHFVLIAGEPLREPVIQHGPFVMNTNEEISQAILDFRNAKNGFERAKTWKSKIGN
Assay: affinity purification with mass spectrometry; previous screening: immunoprecipitation of PIR followed by mass spectrometry; cells not given

binding: binds
Substance: FAS (hit of the immunoprecipitation and mass spectrometry screen) (from UniProt P25445 26-335) (receptor)
